PubChem BioAssay AID504774 – Drosophila RNAi Screening Center, 2011
The screen tested about 23,000 reagents; this is a random part of those that have a named target and a result. 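Values are quantile-normalised luminescence on an arbitrary scale; higher means more cells surviving MMS.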 The numbers tell different reagents against one gene apart. A plus sign joins genes that one reagent is predicted to hit. Not all columns of the deposit are shown. Reagent sequences are not shown.

Assay: 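Fly genes whose loss alters survival after alkylation damage to DNA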 (primary screen)
Cell system: Drosophila Kc167 cells
Knock-down reagent: long dsRNA against Drosophila genes, about 0.25 µg dsRNA per well
Time to read-out: about 6 days: 3 days knock-down, then 3 days with or without MMS
Conditions: methyl methanesulphonate 0.004% (w/v) for 3 days after knock-down
Detection: 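ATP-dependent luminescence as a measure of live cells in MMS-exposed wells, quantile normalised within each plate, with replicate values also given as a mean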
Reading the numbers: mean viability with MMS and viability with MMS: higher = more surviving cells after MMS

How did the screen score CG12811?
mean viability with MMS: 3.51e6; viability with MMS, replicate 1: 4.01e6

For SmD1 (Small ribonucleoprotein particle protein SmD1), what was measured?
mean viability with MMS: 3.21e6; viability with MMS, replicate 1: 3.60e6

Which result is listed for rt (rotated abdomen)?
mean viability with MMS: 3.53e6; viability with MMS, replicate 1: 3.95e6

Which result is listed for CG31871 #1?
mean viability with MMS: 3.34e6; viability with MMS, replicate 1: 3.76e6

With CG31871 #2, what was measured?
mean viability with MMS: 3.31e6; viability with MMS, replicate 1: 3.73e6

With CG9674 #1, how do the results read?
mean viability with MMS: 3.73e6; viability with MMS, replicate 1: 4.11e6

For CG9674 #2, what was measured?
mean viability with MMS: 3.57e6; viability with MMS, replicate 1: 4.06e6

For CG3285, how do the results read?
mean viability with MMS: 3.54e6; viability with MMS, replicate 1: 4.16e6

What did the screen give for CG31960?
mean viability with MMS: 3.50e6; viability with MMS, replicate 1: 4.03e6

With ND-B18 (NADH dehydrogenase (ubiquinone) B18 subunit), how do the results read?
mean viability with MMS: 3.53e6; viability with MMS, replicate 1: 4.02e6

How did the screen score Chpf (Chondroitin polymerizing factor) #1?
mean viability with MMS: 3.80e6; viability with MMS, replicate 1: 4.24e6

What did the screen give for Chpf (Chondroitin polymerizing factor) #2?
mean viability with MMS: 3.58e6; viability with MMS, replicate 1: 4.29e6

For CG14839, what does the deposit list?
mean viability with MMS: 3.77e6; viability with MMS, replicate 1: 4.09e6

With CG8087, how do the results read?
mean viability with MMS: 3.66e6; viability with MMS, replicate 1: 3.91e6

With niki (nimA-like kinase), how do the results read?
mean viability with MMS: 3.57e6; viability with MMS, replicate 1: 3.92e6

With ncm (nucampholin), what was measured?
mean viability with MMS: 3.08e6; viability with MMS, replicate 1: 3.27e6

How did the screen score Tsr1 (Tsr1 ribosome assembly factor)?
mean viability with MMS: 3.35e6; viability with MMS, replicate 1: 3.80e6

How did the screen score CG8046?
mean viability with MMS: 3.48e6; viability with MMS, replicate 1: 3.92e6

What did the screen give for CG32313?
mean viability with MMS: 3.56e6; viability with MMS, replicate 1: 4.01e6

What did the screen give for EAChm (Enhancer of Acetyltransferase Chameau)?
mean viability with MMS: 3.52e6; viability with MMS, replicate 1: 4.05e6

For CG10467, what does the deposit list?
mean viability with MMS: 3.56e6; viability with MMS, replicate 1: 4.00e6

For NetA (Netrin-A), what was measured?
mean viability with MMS: 3.52e6; viability with MMS, replicate 1: 3.97e6

What is on record for wun2 (wunen-2)?
mean viability with MMS: 3.68e6; viability with MMS, replicate 1: 4.12e6

How did the screen score Tailor?
mean viability with MMS: 3.49e6; viability with MMS, replicate 1: 4.02e6

What is on record for CG15022?
mean viability with MMS: 3.67e6; viability with MMS, replicate 1: 4.52e6

With CR46300 (pseudo), what does the deposit list?
mean viability with MMS: 3.59e6; viability with MMS, replicate 1: 4.15e6

For Cdc14 (Cell division cycle 14), how do the results read?
mean viability with MMS: 3.57e6; viability with MMS, replicate 1: 4.12e6

With CG8839, how do the results read?
mean viability with MMS: 3.52e6; viability with MMS, replicate 1: 3.92e6

For Ufsp1 (UFM1 specific peptidase 1), how do the results read?
mean viability with MMS: 3.59e6; viability with MMS, replicate 1: 4.05e6

With PolI (DNA polymerase iota), how do the results read?
mean viability with MMS: 3.48e6; viability with MMS, replicate 1: 3.94e6

With Polr1D + DCTN6-p27, how do the results read?
mean viability with MMS: 3.47e6; viability with MMS, replicate 1: 3.90e6

What did the screen give for Gld (Glucose dehydrogenase)?
mean viability with MMS: 3.53e6; viability with MMS, replicate 1: 4.01e6

How did the screen score CG17300?
mean viability with MMS: 3.70e6; viability with MMS, replicate 1: 4.04e6

For Tssk (Testis-specific serine/threonine kinase), what does the deposit list?
mean viability with MMS: 3.54e6; viability with MMS, replicate 1: 4.01e6

For LysX (Lysozyme X), how do the results read?
mean viability with MMS: 3.62e6; viability with MMS, replicate 1: 4.07e6
